Measurements taken from patent US20170105999A1, “METHOD FOR TREATING DRUG RESISTANT CANCER” (NATIONAL YANG MING UNIVERSITY, priority 2014, published 2017).

How the values were obtained:
CL141 = experiment: Cytotoxicity, sulforhodamine B (SRB) assay; format: cell-based; conditions: read-out: IC50 for prochlorperazine; CL141, adenocarcinoma, EGFR WT; 48 hours
Method: (§1) Cells were plated in 96-well plates at a density of 2000 cells per well in triplicate. The cells were treated on the third day (to ensure proper plating efficiency and vitality) to indicated agents for 48 hrs. […] Cytotoxicity was assessed using the sulforhodamine B (SRB) assay (23). Briefly, the medium was discarded, and the adherent cells were fixed by 100 μl of cold 10% trichioroacetic acid (w/v) in each well for 1 h at 4° C. After fixation, cells were stained with 100 μl/well of 0.4% (w/v, in 1% acetic acid) SRB solution for 30 min at room temperature, and then washed 5 times with 1% acetic acid. After air-drying, 100 μl of 10 mM Tris base was added to each well and the absorbance was read at 530 nm. Cytotoxicity is expressed as the percent of cells in drug treated wells relative to number of cells in the solvent only control (set to 100%). Each experiment was performed independently at least 2 times in triplicate and cytotoxicity is given as means ±SD.
(§2) A549, A549-ON, CL97, CL141, HCC827, and H441 were lung adenocarcinoma cell lines. CL152, H2170, and H226 were squamous cell carcinoma cell lines. Cell viability was determined by SRB assay. […] To determine whether side population (SP) cells, which represent a cell population with CSC characteristics, exist in NSCLC cell lines, we stained the cells with the fluorescent dye, Hoechst 33342, and analyzed the cells with flow cytometry.

CL152 = experiment: Cytotoxicity, sulforhodamine B (SRB) assay; format: cell-based; conditions: read-out: IC50 for prochlorperazine; CL152, squamous cell carcinoma, EGFR WT; 48 hours
Method: as §1, §2

HT29 = experiment: cells; conditions: Homo sapiens, HT-29, read-out: IC50 for prochlorperazine
Method: as §1

SK-Hep 1 = experiment: cells; conditions: Homo sapiens, SK-HEP1, read-out: IC50 for prochlorperazine
Method: as §1

[1] = test system: A549-ON (overexpression Oct4 and Nanog); experiment: cells; conditions: 48 h, read-out: IC50 for prochlorperazine
Method: as §1, §2

A549 = experiment: cells; conditions: Homo sapiens, A549, 48 h, read-out: IC50 for prochlorperazine
Method: as §1, §2

CL97 = experiment: cells; conditions: Homo sapiens, CL97, 48 h, read-out: IC50 for prochlorperazine
Method: as §1, §2

H1299 = experiment: cells; conditions: Homo sapiens, NCI-H1299, 48 h, read-out: IC50 for prochlorperazine
Method: as §1, §2

H2170 = experiment: cells; conditions: Homo sapiens, NCI-H2170, 48 h, read-out: IC50 for prochlorperazine
Method: as §1, §2

H226 = experiment: cells; conditions: Homo sapiens, NCI-H226, 48 h, read-out: IC50 for prochlorperazine
Method: as §1, §2

H441 = experiment: cells; conditions: Homo sapiens, NCI-H441, 48 h, read-out: IC50 for prochlorperazine
Method: as §1, §2

HCC827 = experiment: cells; conditions: Homo sapiens, HCC827, 48 h, read-out: IC50 for prochlorperazine
Method: as §1, §2

NSCLC cell lines = experiment: cells; conditions: 48 h, read-out: IC50 values in all cancer cell lines
Method: as §1, §2

drug resistant cancer = experiment: Clinical observation study, prochlorperazine added as maintenance therapy; conditions: after prochlorperazine treatment added to salvage therapy; patients

CN1CCN(CCCN2c3ccccc3Sc3ccc(Cl)cc32)CC1 [prochlorperazine]
IC50 (CL141): 12.7 ± 1 µM | IC50 (CL152): 16.6 ± 2.4 µM | IC50 (HT29): 13.5 ± 0.05 µM | IC50 (SK-Hep 1): > 20 µM | IC50 [1]: 21 µM | IC50 (A549): 21.5 ± 1.1 µM | IC50 (CL97): 13 ± 1.04 µM | IC50 (H1299): 27.6 ± 8.8 µM | IC50 (H2170): 24.7 ± 0.4 µM | IC50 (H226): 21.2 ± 1 µM | IC50 (H441): 17.7 ± 1.3 µM | IC50 (HCC827): > 20 µM | IC50 (NSCLC cell lines): ~20 µM | Median OS (overall survival) (drug resistant cancer): 13.5 (7.4-21.4) months
